This is one part of the list. These are further read-outs of the screen, such as a control signal, another cell line or another target. No call is given for them. Most of these compounds were active or inconclusive in the main read-out, so they are no random draw. Words in brackets tell the shape of the fitted curve; partial curves, single points and poor fits give uncertain potencies.

The nature of this assay: qHTS Assay to Find Inhibitors of Chronic Active B-Cell Receptor Signaling. Particulars: ABC-DLBCL IkBa-CBG/CBR reporter, luminescence ratio (green luciferase fused to IkBa over red control in TMD8 lymphoma cells), 4 h. Put shortly: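 Cell line TMD8 (human ABC DLBCL), stably expressing tet-inducible CBG68-IkBa fusion and CBR; IMDM/0.5% FBS; cpd up to 46 uM; dox induction, 4 h, 37C/5% CO2; dual luminescence; green/red ratio; MG132 control.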
Where [1] appears, read: measured here: CBR red luminescence, cell number.
[2] abbreviates: measured here: IkBa-CBG green luminescence.

A word on the AC50: it is the concentration at which the activity in the assay is half-maximal. Consider `CCN1C(=O)c2ccc(C(=O)Nc3cccc(C(=O)O)c3)cc2C1=O`, for which the AC50 under setting [1] is 11.2 µM [falling, partial curve, poor fit]. Same read-out and setting: then `CCc1ccc(CNc2ccc(N3CCN(C(C)=O)CC3)cc2)cc1`, with 2.06 µM [falling, partial curve, poor fit]; and `COc1cccc(NC(=O)CSc2nnc3cc(C)nc(N)n23)c1`, with 0.708 µM [rising, partial curve, poor fit]. Consider `COc1ccc(S(=O)(=O)N(C)C[C@H]2Oc3ccc(NS(=O)(=O)c4ccccc4)cc3C(=O)N([C@H](C)CO)C[C@@H]2C)cc1`, for which the AC50 is 14.6 µM [rising, partial curve, poor fit] under setting [1] and 9.2 µM [falling, partial curve, poor fit] under setting [2]. Regarding `Cc1c(C2(O)CCCCC2)[nH]c2ccc(C(F)(F)F)cc12`, the half-maximal activity concentration (AC50) under setting [1] was 0.461 µM [rising, partial curve, poor fit]. Regarding `CCCN(CCC)S(=O)(=O)c1ccc(C(=O)Nc2nc(-c3ccccc3)c(C(=O)OCC)s2)cc1`, the AC50 under setting [2] is 23.1 µM [rising, partial curve, poor fit].

For the compound `CN(NC1OC(=O)c2ccccc21)c1ncc(Cl)cc1C(F)(F)F` (stereo unspecified), the AC50 under setting [1] is 8.91 µM [rising, partial curve, poor fit]. For `COC(=O)Oc1ccc(/C=N/NC(=O)CSCc2ccccc2Br)cc1OC`, under setting [1], the concentration at half-maximal activity (AC50) is 0.461 µM [falling, full curve]. The same measure, in the same setting: with `Cc1csc(SCC(=O)Nc2nc(-c3ccccc3)cs2)n1` the figure was 32.6 µM [falling, partial curve, poor fit]; with `COc1ccc(OC)c(Nc2ncnc3c2cnn3-c2ccc(C)cc2)c1`, 1.26 µM [falling, full curve, poor fit]; with `O=C(COC(=O)c1cccc(S(=O)(=O)N2CCCCC2)c1)NC1CCCCC1`, 3.66 µM [rising, partial curve]. On the same count and under the same terms, then `CCC1CCCCN1S(=O)(=O)c1ccc(NC(=O)c2ccncc2)cc1` (stereo unspecified), with 35.5 µM [falling, single point]; and `CC(C)Oc1ccc(/C(O)=C2/C(=O)C(=O)N(CCN(C)C)C2c2ccco2)cc1` (stereo unspecified), with 6.51 µM [falling, single point]; and `Cc1ncc(CO)c2cc(C(N)=O)c(=Nc3ccccc3)oc12`, with 14.1 µM [falling, partial curve, poor fit]. `C#CCOCCOCCOCCNc1nc(N2CCN(C(=O)CCCCCCCCCCNC(=O)[C@H](CCCCN)n3cc(CCO)nn3)CC2)nc(N2CCN(C(=O)CCCCCCCCCCNC(=O)[C@H](CCCCN)n3cc(CCO)nn3)CC2)n1`: the AC50 is, setting by setting: under setting [1], 29.1 µM [rising, single point]; under setting [2], 23.1 µM [falling, single point]. As to `CCOC(=O)COc1ccc2c(=O)c(-c3ccc(OC)c(OC)c3)c(C(=O)OCC)oc2c1`, the AC50 under setting [1] was 12.6 µM [falling, partial curve]. For the compound `O=C(N/N=C/c1cccc2cccnc12)c1ccccc1O`, the AC50 reads like this: under setting [1], 14.1 µM [falling, partial curve, poor fit]; under setting [2], 17.8 µM [falling, single point]. `S=C(Nc1ccc2snnc2c1)N1CCN(c2ccccn2)CC1`: the AC50 under setting [1] was 10.3 µM [rising, partial curve, poor fit]. The same measure, in the same setting: then `Cc1noc(C)c1COc1ccc(C(=O)NCC2CCCO2)cc1` (stereo unspecified), with 12.6 µM [rising, partial curve, poor fit]; and `CCN(C(=O)COC(=O)c1ccccc1NC(=O)c1ccco1)C1CCS(=O)(=O)C1` (stereo unspecified), with 12.6 µM [falling, partial curve, poor fit]. For the compound `CNC(=O)c1cccc(NC(=O)C(C)c2ccc3cc(OC)ccc3c2)c1` (stereo unspecified), the AC50 was 3.55 µM [rising, partial curve, poor fit] under setting [1] and 8.91 µM [falling, partial curve] under setting [2].

Take `CCCc1cc(C(=O)Nc2cccc(Cl)c2)no1`: the concentration at half-maximal activity (AC50) under setting [1] was 16.4 µM [falling, single point].

Consider `COc1ccc(C(OCC(O)CNCCc2ccccc2)c2ccc(OC)cc2)cc1` (stereo unspecified), for which the AC50 under setting [1] is 25.1 µM [falling, single point]. Still for that read-out and setting: then `C[C@H](N=C1NS(=O)(=O)c2ccccc21)C(=O)OCc1cc([N+](=O)[O-])cc2c1OCOC2`, with 5.62 µM [rising, single point]. Still for that read-out and setting: with `O=C(C[n+]1cn(C(F)F)c2ccccc21)c1ccc(OC(F)F)cc1` the figure was 22.4 µM [falling, single point]; with `COc1ccc(C[C@H]2CN3C(=NC[C@H]3Cc3ccccc3)N2CCNC(=O)CCC2CCCCC2)cc1`, 15.8 µM [falling, single point]. Regarding `CCc1c(C)nc(SCC(=O)c2cccs2)c(C#N)c1C`, under setting [1], the AC50 was 18.4 µM [falling, partial curve]. Still for that read-out and setting: with `COc1ccc(N(CN2C(=O)C3C4C=CC(C4)C3C2=O)C(=O)c2ccco2)cc1` (stereo unspecified) the figure was 31.6 µM [rising, single point]; with `O=C(NCCNc1ccccc1[N+](=O)[O-])c1ccccc1F`, 35.5 µM [falling, single point]. On to `O=c1[nH]c2ccccc2n1CCCSc1cnc2ccccc2n1`, for which the AC50 under setting [1] was 6.51 µM [rising, single point]. The same measure, in the same setting: with `O=C(CSc1nc2ccccc2c(=O)n1-c1ccc(F)cc1)NC1CCS(=O)(=O)C1` (stereo unspecified) the figure was 20.6 µM [rising, partial curve, poor fit]; with `CCN1C(=O)c2cccc3c(N)ccc1c23`, 9.2 µM [rising, partial curve]; with `CC1(C)Cc2c(sc(NC(=S)NC(=O)c3ccccc3)c2C(=O)O)CO1`, 1.26 µM [falling, full curve, poor fit].

Take `COc1ccc(OC(=O)c2cnn(-c3ccccc3)c2C)cc1`: under setting [1], the concentration at half-maximal activity (AC50) was 0.651 µM [rising, full curve, poor fit].

With `O=S1(=O)CCC(NC2CCCC2)C1` (stereo unspecified), under setting [1], the AC50 is 15.8 µM [rising, partial curve, poor fit]. The same measure, in the same setting: with `COc1cc(OC)c(CNC2CCCCCC2)cc1Br` the figure was 11.2 µM [falling, partial curve, poor fit]; with `Cc1ccc(NC(=O)Nc2sc(=S)n(C)c2C)cc1`, 11.6 µM [rising, partial curve, poor fit].
